At least one compound was matched to its structure with a doubt left. Some compounds share one wording; it may come from a single statement.
Target: LANCL2 (Homo sapiens (Human), UniProt Q9NS86)
Assay: SPR (BIACORE S200) kinetic determination of LANCL2-small molecule interactions
Assay type: binding
Conditions: for Rmax (RU): maximum binding force
Method: 1.1 Reagent Materials • Ligand: LANCL2 • Running buffer: 20 mM MES, 150 mM NaCl, 0.05% P20, pH 6.5, 1% DMSO
Injection conditions for small molecule compounds: a flow rate of 30 μL/min, a binding time of 60 s, a dissociation time of 300 s.
Running buffer: 20 mM MES, 150 mM NaCl, 0.05% P20, pH 6.5, 1% DMSO.
Sample chamber temperature: 25° C.; analysis temperature: 25° C.
Kinetic determination of LANCL2-small molecule interactions was performed. The kinetic parameters of small molecules BT-11 and L-1 to 60 (analytes) binding to LANCL2 (ligand) were determined using BIACORE S200. Data were generated in triplicate in a dose-dependent manner (5-8 titration points) and analyzed to determine binding models (Langmuir, conformational shifts, etc.), real-time association and dissociation constants, and equilibrium dissociation constants. SPR technology allows the validation of specific LANCL2-phytochemical interactions as well as an increased insight into the gold standard of binding mechanisms and rates. Experiments were performed on carboxymethyl polydextrose (CM5) sensor chips by amine-coupled covalent attachment of LANCL2. Data were analyzed with BIACORE S200T200 evaluation software (version 1), so as to determine affinity binding constants (KD) using a 1:1 binding model.
An optical technique for detecting molecular interactions, SPR, was used to measure the binding affinity between LANCL2 and a ligand thereof (compound to be tested). Purified recombinant LANCL2 protein was immobilized on a BIACORE sensor chip and small molecules were injected onto the protein surface using an equipment of microfluidic system. The change in total mass on the chip surface, corresponding to a small binding to the protein, was measured. […] The equilibrium dissociation constant (Kd) was often used to describe the affinity between a ligand and a protein, such as affinity degree of a ligand binding to a specific protein. Ligand-protein affinity was affected by non-covalent intermolecular interactions between two molecules, such as hydrogen bonding, electrostatic interactions, hydrophobic bonds and van der Waals forces. The steady-state affinity (Kd) for each interaction could be measured by plotting equilibrium binding levels against compound concentrations.

Amino acid sequences for entries named in this document (tags omitted).
UniProt Q9NS86, whole entry, species assumed: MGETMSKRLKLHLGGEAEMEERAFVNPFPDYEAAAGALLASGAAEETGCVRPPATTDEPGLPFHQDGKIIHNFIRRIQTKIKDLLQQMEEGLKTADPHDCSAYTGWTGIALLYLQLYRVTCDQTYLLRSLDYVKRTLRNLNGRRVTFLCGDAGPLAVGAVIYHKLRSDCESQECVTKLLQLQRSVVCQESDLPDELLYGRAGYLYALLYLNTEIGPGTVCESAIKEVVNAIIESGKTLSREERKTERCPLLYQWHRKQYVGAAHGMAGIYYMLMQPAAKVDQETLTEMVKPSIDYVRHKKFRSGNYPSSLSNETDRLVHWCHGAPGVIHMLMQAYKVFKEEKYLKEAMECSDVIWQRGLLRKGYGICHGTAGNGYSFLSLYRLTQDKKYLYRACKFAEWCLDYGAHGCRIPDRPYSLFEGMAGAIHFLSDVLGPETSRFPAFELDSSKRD

Row | Structure (SMILES) | Rmax (RU) | binding activity compared with positive reference compound BT-11
1 | O=C(Nc1ccccc1NC(=O)c1cccc(-c2cn3ccccc3n2)c1)c1cccc(-c2cn3ccccc3n2)c1 [Embodiment L-1] | 3.6 RU | 
2 | O=C(NC1C2CN(C(=O)c3cccc(-c4nc5ccccc5[nH]4)n3)CC21)c1ccnc(Nc2ccccn2)n1 [Embodiment L-25] | 8.1 RU | better binding activities than the positive reference compound BT-11
3 | O=C(N[C@H]1[C@@H]2CN(C(=O)c3cccnc3Oc3ccccc3)C[C@@H]21)c1cccc(-c2cn3ccccc3n2)c1 [Embodiment L-105, 3-(imidazo[1,2-a]pyridin-2-yl)-N-((1R,5S,6s)-3-(2-phenoxynicotinamido)-3-azabicyclo[3.1.0]hexan-6-yl)benzamide] | 8.6 RU | 
4 | O=C(N[C@H]1[C@@H]2CN(C(=O)c3n[nH]c4ccccc34)C[C@@H]21)c1cccc(-c2cn3ccccc3n2)c1 [Embodiment L-106, N-((1R,5S,6s)-3-(1H-indazole-3-carbonyl)-3-azabicyclo[3.1.0]hexan-6-yl)-3-(imidazo[1,2-a]pyridin-2-yl)benzamide] | 6.4 RU | better binding activities than the positive reference compound BT-11

Reference: patent US20240101552A1, “CARBONYL HETEROCYCLIC COMPOUND AND APPLICATION THEREOF” (SHANGHAI PHARMACEUTICALS HOLDING CO., LTD., priority 2020, published 2024)
